Substitutions are numbered along the chain they refer to. Results are given in words; binding and its absence hold for the method and conditions named. Binding seen in cells or lysates may run through a third protein. Some results given as binding are weak or reduced against the parent protein; the word gives no strength. For some of these results: Tags and fused reporters may be left off the sequences shown. One block for each molecule: values may come before it.
Columns and labels:
[1] = target: Fg-HAUSP (expressed in 293T cells) (human) (UniProt Q93009); experiment: co-IP; 293T cells transfected with tagged constructs, IP and immunoblot; in some panels with co-expressed LATS1/LATS2 or MST1/MST2
Fg-Usp7 (Drosophila) = target: T1, Fg-Usp7 (Drosophila) (UniProt Q9VYQ8); experiment: co-IP; S2 cells transfected with tagged constructs, harvested 48 h after transfection, IP and immunoblot; in some panels with co-expressed Hpo, Hpo-KD, Wts or Wts-KD
T1 sequence: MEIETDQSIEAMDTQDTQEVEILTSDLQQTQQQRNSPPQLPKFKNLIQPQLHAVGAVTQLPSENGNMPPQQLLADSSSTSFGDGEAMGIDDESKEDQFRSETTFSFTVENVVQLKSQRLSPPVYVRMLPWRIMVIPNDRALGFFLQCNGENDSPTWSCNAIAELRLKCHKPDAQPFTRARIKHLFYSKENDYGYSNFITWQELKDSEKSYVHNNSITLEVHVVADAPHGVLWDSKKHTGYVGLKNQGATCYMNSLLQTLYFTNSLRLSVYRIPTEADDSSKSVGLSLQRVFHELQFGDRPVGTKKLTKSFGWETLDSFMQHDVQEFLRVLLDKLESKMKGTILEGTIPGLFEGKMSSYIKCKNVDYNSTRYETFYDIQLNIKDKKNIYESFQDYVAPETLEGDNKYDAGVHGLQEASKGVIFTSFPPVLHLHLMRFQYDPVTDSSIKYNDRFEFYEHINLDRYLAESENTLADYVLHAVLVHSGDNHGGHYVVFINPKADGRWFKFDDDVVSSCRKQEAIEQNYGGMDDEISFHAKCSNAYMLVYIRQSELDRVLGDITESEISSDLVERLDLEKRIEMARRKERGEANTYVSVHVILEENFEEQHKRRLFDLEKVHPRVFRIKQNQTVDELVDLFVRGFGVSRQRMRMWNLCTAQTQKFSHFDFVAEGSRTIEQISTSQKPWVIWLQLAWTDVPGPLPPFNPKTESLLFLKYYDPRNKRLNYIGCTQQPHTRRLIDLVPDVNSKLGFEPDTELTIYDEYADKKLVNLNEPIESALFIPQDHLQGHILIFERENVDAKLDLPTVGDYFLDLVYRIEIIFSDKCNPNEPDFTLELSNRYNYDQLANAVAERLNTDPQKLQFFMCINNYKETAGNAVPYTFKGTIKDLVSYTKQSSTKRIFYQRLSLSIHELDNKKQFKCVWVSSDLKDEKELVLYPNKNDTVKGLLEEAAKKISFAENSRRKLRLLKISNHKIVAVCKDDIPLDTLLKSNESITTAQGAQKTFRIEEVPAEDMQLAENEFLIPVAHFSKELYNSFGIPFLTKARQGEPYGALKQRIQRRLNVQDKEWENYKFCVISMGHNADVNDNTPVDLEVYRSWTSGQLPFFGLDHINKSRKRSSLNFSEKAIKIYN

Protein sequences, listed by entry. Tags and fused reporters are not part of them.
UniProt Q93009: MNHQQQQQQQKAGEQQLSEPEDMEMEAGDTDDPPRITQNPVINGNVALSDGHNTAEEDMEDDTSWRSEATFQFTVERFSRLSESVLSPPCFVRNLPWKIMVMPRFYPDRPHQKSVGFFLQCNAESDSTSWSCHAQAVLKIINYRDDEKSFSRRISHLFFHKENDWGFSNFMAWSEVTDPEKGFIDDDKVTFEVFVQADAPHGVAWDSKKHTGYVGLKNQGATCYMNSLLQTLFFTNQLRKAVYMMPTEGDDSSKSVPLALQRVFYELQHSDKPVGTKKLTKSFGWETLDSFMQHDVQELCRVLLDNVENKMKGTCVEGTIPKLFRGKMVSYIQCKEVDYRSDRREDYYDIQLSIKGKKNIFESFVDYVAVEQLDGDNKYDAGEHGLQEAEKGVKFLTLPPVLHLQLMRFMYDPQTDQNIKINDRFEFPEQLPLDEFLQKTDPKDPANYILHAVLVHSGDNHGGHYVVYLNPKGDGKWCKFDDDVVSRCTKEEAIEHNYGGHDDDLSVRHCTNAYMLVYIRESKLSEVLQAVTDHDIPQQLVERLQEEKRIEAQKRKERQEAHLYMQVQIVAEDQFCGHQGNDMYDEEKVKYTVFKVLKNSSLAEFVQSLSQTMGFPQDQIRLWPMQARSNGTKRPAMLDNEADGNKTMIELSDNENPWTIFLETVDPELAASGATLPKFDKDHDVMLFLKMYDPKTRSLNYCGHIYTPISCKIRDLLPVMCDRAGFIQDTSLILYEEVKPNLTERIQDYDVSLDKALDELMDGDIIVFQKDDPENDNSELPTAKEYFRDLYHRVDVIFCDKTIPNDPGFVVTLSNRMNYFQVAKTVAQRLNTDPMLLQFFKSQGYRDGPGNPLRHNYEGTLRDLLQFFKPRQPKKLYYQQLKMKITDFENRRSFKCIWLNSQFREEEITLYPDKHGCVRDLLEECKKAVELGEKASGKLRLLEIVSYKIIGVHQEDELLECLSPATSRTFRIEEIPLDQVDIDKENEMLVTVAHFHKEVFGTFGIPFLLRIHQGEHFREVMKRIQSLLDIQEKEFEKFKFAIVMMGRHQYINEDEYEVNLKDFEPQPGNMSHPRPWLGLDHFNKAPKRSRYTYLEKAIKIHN
UniProt P46937: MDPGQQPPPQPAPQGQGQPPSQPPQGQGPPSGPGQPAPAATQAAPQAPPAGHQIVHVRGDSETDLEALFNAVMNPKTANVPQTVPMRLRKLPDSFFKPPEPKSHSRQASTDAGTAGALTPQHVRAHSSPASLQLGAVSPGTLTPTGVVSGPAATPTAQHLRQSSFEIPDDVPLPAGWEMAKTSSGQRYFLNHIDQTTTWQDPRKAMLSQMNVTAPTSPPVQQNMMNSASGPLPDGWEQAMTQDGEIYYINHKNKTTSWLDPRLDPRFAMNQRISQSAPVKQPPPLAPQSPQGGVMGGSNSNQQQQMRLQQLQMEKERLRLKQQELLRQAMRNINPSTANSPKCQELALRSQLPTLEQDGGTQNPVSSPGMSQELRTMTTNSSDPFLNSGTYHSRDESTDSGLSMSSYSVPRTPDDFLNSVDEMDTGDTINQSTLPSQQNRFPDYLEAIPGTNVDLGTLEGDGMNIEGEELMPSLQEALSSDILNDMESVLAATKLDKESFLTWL
UniProt P19538: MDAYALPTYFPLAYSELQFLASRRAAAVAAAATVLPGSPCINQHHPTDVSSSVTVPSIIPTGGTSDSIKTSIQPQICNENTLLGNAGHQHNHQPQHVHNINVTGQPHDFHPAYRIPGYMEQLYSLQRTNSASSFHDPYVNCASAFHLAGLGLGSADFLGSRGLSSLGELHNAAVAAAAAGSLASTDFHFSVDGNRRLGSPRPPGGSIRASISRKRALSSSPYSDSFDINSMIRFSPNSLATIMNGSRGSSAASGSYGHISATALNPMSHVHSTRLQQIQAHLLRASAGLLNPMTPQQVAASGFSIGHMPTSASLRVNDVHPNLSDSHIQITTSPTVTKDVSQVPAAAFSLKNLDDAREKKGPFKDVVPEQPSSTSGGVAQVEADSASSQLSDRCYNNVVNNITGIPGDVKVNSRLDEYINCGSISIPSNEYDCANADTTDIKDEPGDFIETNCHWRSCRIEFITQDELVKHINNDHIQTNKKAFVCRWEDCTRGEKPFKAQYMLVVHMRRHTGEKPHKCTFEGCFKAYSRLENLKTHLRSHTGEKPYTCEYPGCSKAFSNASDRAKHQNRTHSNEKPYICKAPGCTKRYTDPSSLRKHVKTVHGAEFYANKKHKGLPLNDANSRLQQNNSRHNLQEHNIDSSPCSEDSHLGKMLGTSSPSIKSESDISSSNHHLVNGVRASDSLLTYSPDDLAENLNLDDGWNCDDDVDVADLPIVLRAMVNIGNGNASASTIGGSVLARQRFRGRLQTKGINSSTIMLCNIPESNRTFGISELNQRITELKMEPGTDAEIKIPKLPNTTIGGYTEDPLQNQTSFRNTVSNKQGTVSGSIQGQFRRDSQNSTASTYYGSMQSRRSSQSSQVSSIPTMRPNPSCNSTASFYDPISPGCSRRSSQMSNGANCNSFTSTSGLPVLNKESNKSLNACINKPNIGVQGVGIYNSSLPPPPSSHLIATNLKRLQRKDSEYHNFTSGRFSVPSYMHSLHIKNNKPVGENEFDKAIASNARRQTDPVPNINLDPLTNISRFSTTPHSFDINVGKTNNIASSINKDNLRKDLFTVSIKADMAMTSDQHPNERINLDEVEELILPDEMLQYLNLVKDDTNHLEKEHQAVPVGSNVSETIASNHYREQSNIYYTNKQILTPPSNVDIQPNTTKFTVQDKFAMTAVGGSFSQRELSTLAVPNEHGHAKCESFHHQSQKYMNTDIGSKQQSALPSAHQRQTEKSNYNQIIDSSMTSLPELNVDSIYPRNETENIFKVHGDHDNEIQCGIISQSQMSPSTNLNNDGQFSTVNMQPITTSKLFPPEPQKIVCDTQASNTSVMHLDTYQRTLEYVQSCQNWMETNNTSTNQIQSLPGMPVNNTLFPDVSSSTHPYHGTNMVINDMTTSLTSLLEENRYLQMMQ

[2] = target: endogenous HAUSP (human (endogenous in 293T)) (UniProt Q93009); experiment: co-IP; endogenous proteins from 293T cells; lysate of one 10 cm plate divided for IP with control IgG or Yap/HAUSP antibodies
[3] = target: endogenous Yap (human (endogenous in 293T)) (UniProt P46937); experiment: as above
[4] = target: Fg-HAUSP (expressed in S2 cells) (human) (UniProt Q93009); experiment: co-IP; S2 cells transfected with tagged constructs, harvested 48 h after transfection, IP and immunoblot; in some panels with co-expressed Hpo, Hpo-KD, Wts or Wts-KD
Fg-Usp7-CA (Drosophila) = target: T2, Fg-Usp7-CA (Drosophila) (UniProt Q9VYQ8); experiment: as above
T2 sequence: T1 sequence with C250A

GST-Usp7 (Drosophila) = target: T3, GST-Usp7 (Drosophila) (UniProt Q9VYQ8); experiment: pull-down; GST fusion protein-loaded GSH beads incubated with lysates of S2 cells expressing the partner, 4 °C for 2 h, washed three times with PBS, immunoblot; only the target purified
T3 sequence: T1 sequence

Myc-Yki (Drosophila) = target: T4, Myc-Yki (Drosophila) (UniProt Q45VV3); experiment: co-IP; S2 cells transfected with tagged constructs, harvested 48 h after transfection, IP and immunoblot; in some panels with co-expressed Hpo, Hpo-KD, Wts or Wts-KD
T4 sequence: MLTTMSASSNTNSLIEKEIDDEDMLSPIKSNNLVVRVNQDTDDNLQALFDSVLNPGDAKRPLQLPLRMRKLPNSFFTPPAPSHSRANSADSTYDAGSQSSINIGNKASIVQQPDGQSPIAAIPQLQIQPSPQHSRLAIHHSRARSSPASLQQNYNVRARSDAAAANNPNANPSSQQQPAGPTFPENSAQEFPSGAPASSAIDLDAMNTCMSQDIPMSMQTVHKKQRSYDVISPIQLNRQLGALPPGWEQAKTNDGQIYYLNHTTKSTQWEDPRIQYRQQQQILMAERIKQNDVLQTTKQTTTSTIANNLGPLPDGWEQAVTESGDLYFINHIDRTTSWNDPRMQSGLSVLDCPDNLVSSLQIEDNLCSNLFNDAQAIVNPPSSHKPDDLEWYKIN

[5] = target: T5, endogenous Yki (Drosophila (endogenous in S2 cells)) (UniProt Q45VV3); experiment: co-IP; endogenous proteins from S2 cells, IP and immunoblot
T5 sequence: T4 sequence

Molecule: Myc-Yap (from UniProt P46937 1-504)
binding [1]: binds

Molecule: HA-Ci (from UniProt P19538 1-1397)
binding (Fg-Usp7 (Drosophila)): binds

B1: Myc-Yki (protein, UniProt Q45VV3 1-395)
chain: T4 sequence
binding [4]: binds
binding (Fg-Usp7-CA (Drosophila)): binds
binding (Fg-Usp7 (Drosophila)): binds
binding (GST-Usp7 (Drosophila)): binds

B3: endogenous Usp7 (enzyme, UniProt Q9VYQ8 1-1129)
chain: T1 sequence
binding [5]: binds

Continued, values first:

binding [2]: binds
Molecule: endogenous Yap (from UniProt P46937 1-504)

binding [3]: binds
Molecule: endogenous HAUSP (from UniProt Q93009 1-1102) (enzyme)

binding (Myc-Yki (Drosophila)): binds
B2: Fg-Usp7 (enzyme, UniProt Q9VYQ8 1-1129)
chain: T1 sequence
